Reference: paper PMC12096822
Results are given in words; binding and its absence hold for the method and conditions named. Binding seen in cells or lysates may run through a third protein. A result given as binding can be weak or reduced; the word gives no strength.

Sequences of proteins named here, by UniProt entry; tags and fusion partners are left off.
UniProt G3XCV0: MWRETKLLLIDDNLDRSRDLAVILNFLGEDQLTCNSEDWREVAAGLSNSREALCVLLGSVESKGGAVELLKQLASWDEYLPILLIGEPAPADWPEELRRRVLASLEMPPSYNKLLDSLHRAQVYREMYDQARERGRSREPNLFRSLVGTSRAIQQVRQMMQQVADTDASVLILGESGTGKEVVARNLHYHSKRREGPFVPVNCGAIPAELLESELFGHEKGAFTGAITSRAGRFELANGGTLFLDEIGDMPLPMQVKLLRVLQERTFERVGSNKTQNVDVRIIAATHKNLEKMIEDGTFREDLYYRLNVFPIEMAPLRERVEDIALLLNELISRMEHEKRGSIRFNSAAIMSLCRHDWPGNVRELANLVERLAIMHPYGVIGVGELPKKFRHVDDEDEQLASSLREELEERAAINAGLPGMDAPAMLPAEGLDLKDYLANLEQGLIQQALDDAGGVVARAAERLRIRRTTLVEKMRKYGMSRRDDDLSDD

Experiments:
[1] = biological target: V5-tagged FleQ (full-length transcriptional regulator FleQ) (Pseudomonas aeruginosa) (UniProt G3XCV0); assay: co-IP; 2 mg total cellular protein extract of P. aeruginosa co-producing V5-tagged FleQ and HA-tagged SagS; V5-tagged FleQ precipitated with immobilized anti-V5 antibodies (2 µg/mL); immunoblot with anti-HA antibodies
[2] = biological target: HA-tagged SagS (orphan sensor / sensor-regulator hybrid SagS) (Pseudomonas aeruginosa) (UniProt Q9I019); assay: co-IP; 2 mg total cellular protein extract of P. aeruginosa co-producing V5-tagged FleQ and HA-tagged SagS; HA-tagged SagS precipitated with immobilized anti-HA antibodies; immunoblot with anti-V5 antibodies

Row | Substance | binding [1] | binding [2]
1 | HA-tagged SagS (orphan sensor / sensor-regulator hybrid SagS) (from UniProt Q9I019) | binds | 
2 | V5-tagged FleQ (full-length transcriptional regulator FleQ) (from UniProt G3XCV0 1-490) |  | binds
